These are yes or no findings as the source states them, for the method shown. In cells and extracts the contact can be indirect. Some results given as binding are weak or reduced against the parent protein; the word gives no strength. For some of these results: Sequences can lack the tags named with a protein.
T1: Flag-tagged SHQ1 (human) (UniProt Q6PI26)
T1 sequence: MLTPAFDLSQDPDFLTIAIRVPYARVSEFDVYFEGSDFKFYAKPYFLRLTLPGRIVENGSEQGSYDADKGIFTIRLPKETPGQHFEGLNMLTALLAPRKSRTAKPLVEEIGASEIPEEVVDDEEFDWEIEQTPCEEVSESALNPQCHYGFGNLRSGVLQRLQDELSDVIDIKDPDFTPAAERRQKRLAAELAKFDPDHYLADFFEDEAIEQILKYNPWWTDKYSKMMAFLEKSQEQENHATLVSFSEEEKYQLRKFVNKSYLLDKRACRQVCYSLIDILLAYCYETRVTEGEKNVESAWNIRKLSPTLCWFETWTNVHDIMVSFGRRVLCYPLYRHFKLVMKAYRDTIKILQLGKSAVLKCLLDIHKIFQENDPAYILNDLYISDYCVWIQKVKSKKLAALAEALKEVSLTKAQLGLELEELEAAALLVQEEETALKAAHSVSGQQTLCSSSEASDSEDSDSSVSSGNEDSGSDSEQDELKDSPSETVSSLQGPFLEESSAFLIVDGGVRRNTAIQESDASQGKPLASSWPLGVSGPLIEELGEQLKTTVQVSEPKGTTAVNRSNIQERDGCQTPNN

Protein sequences, listed by entry. Tags and fused reporters are not part of them. Residues count along the entry.
UniProt P11021, residues 19-654: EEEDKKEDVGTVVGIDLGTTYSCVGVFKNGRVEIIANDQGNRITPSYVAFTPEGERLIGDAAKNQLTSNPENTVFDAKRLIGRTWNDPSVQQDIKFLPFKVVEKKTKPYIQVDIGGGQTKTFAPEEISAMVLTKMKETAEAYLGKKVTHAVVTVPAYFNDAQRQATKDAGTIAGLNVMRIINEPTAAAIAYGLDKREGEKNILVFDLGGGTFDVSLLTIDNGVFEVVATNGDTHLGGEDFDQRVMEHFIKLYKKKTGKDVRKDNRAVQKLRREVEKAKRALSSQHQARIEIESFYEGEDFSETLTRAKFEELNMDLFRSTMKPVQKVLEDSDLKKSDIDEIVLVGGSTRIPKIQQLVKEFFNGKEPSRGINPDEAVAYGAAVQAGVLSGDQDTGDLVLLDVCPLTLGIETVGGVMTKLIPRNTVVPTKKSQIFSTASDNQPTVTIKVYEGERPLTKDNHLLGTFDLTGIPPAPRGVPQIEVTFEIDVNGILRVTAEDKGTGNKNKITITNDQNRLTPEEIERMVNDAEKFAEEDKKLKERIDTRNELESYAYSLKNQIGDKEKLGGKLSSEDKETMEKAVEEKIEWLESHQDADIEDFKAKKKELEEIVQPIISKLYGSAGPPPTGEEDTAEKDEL


How the values were obtained:
[1] = molecular target: T1, Flag-tagged SHQ1 (human); experiment: co-IP; HepG2 cells transfected with Flag-SHQ1 alone or with HA-GRP78, 24 h; NP-40 lysis buffer (50 mM Tris-HCl pH 7.6, 120 mM NaCl, 1 mM EDTA, 1% NP40); anti-Flag or anti-HA antibody overnight, protein A/G beads; western blot
[2] = molecular target: HA-tagged GRP78 (UniProt P11021); experiment: as above
[3] = molecular target: endogenous GRP78 (human (endogenous in HepG2)) (UniProt P11021); experiment: co-IP; HepG2 lysate (also SHQ1-knockdown and control HepG2 cells); anti-GRP78 antibody used for immunoprecipitation; western blot of endogenous proteins

| binding [1] | Molecule | further results |
| --- | --- | --- |
| binds | endogenous GRP78 (from UniProt P11021 19-654) | – |
| binds | HA-tagged GRP78 (from UniProt P11021 19-654) | – |
| – | Flag-tagged SHQ1 (protein, UniProt Q6PI26 1-577) MLTPAFDLSQDPDFLTIAIRVPYARVSEFDVYFEGSDFKFYAKPYFLRLTLPGRIVENGSEQGSYDADKGIFTIRLPKETPGQHFEGLNMLTALLAPRKSRTAKPLVEEIGASEIPEEVVDDEEFDWEIEQTPCEEVSESALNPQCHYGFGNLRSGVLQRLQDELSDVIDIKDPDFTPAAERRQKRLAAELAKFDPDHYLADFFEDEAIEQILKYNPWWTDKYSKMMAFLEKSQEQENHATLVSFSEEEKYQLRKFVNKSYLLDKRACRQVCYSLIDILLAYCYETRVTEGEKNVESAWNIRKLSPTLCWFETWTNVHDIMVSFGRRVLCYPLYRHFKLVMKAYRDTIKILQLGKSAVLKCLLDIHKIFQENDPAYILNDLYISDYCVWIQKVKSKKLAALAEALKEVSLTKAQLGLELEELEAAALLVQEEETALKAAHSVSGQQTLCSSSEASDSEDSDSSVSSGNEDSGSDSEQDELKDSPSETVSSLQGPFLEESSAFLIVDGGVRRNTAIQESDASQGKPLASSWPLGVSGPLIEELGEQLKTTVQVSEPKGTTAVNRSNIQERDGCQTPNN | binding [2]: binds |
| – | endogenous SHQ1 (protein, UniProt Q6PI26 1-577) MLTPAFDLSQDPDFLTIAIRVPYARVSEFDVYFEGSDFKFYAKPYFLRLTLPGRIVENGSEQGSYDADKGIFTIRLPKETPGQHFEGLNMLTALLAPRKSRTAKPLVEEIGASEIPEEVVDDEEFDWEIEQTPCEEVSESALNPQCHYGFGNLRSGVLQRLQDELSDVIDIKDPDFTPAAERRQKRLAAELAKFDPDHYLADFFEDEAIEQILKYNPWWTDKYSKMMAFLEKSQEQENHATLVSFSEEEKYQLRKFVNKSYLLDKRACRQVCYSLIDILLAYCYETRVTEGEKNVESAWNIRKLSPTLCWFETWTNVHDIMVSFGRRVLCYPLYRHFKLVMKAYRDTIKILQLGKSAVLKCLLDIHKIFQENDPAYILNDLYISDYCVWIQKVKSKKLAALAEALKEVSLTKAQLGLELEELEAAALLVQEEETALKAAHSVSGQQTLCSSSEASDSEDSDSSVSSGNEDSGSDSEQDELKDSPSETVSSLQGPFLEESSAFLIVDGGVRRNTAIQESDASQGKPLASSWPLGVSGPLIEELGEQLKTTVQVSEPKGTTAVNRSNIQERDGCQTPNN | binding [3]: binds |
